Data published in ChEMBL document CHEMBL3392999 (J Med Chem, 2014).

System: A2780
Assay: Cytotoxicity against human A2780 cells after 24 hrs by MTT assay
Type: functional, cell-based
Details: A2780, 24 h
How it was run: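 Ovarian carcinoma A2780 and its P-glycoprotein-overexpressing MDR subline A2780AD were cultured in RPMI 1640 with 10% FCS, glutamine, antibiotics and 0.25 units/mL bovine insulin. Cytotoxicity was measured by a modified MTT assay. IC50 is 50% growth inhibition, averaged over three measurements. The resistance factor is A2780AD IC50 divided by A2780 IC50.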

## COc1cc2c(c(OC)c1OC)-c1ccc(OC)c(=O)cc1[C@@H](NC(C)=O)CC2 [COLCHICINE]
  IC50: 15 nM
